No constants are given. Whether binding was seen depends on the method and setting. Binding seen in cells or lysates may run through a third protein. These calls come from enrichment with a bait or labelling near it, and not all partners need be listed. Sequences can lack the tags named with a protein.

For this test, the target named is T1, intein-BHMT (betaine homocysteine S-methyltransferase) (R. norvegicus) (UniProt O09171).
T1 sequence: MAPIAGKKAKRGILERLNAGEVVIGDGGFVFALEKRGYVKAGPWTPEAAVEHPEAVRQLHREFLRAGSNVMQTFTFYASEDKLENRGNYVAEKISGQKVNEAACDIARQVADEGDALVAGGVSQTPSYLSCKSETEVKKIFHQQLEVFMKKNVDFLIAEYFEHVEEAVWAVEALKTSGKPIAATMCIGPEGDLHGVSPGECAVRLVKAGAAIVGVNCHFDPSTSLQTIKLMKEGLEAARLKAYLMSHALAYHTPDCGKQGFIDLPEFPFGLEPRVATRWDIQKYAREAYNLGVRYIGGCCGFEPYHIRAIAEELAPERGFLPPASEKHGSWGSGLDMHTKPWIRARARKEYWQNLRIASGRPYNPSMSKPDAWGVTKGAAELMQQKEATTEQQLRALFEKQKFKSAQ
The test can be described thus: affinity purification with mass spectrometry; same intein-BHMT chitin column after the salt gradient; proteins recovered together with BHMT upon intein excision with 30 mM 2-mercaptoethanol, 48 h at 23°C (strong interactors); LC-MS/MS; only the target purified.

B1: Pleckstrin homology domain-containing family A member 4 (protein, UniProt P60669 1-779)
chain: MEQGRPRSSLSLTSSASTVSSLSSLSAKKPTRVVHKVHAFGKRNNALRRDPNLPVHIRGWLHKQDSSGLRLWKRRWFVLSGHCLFYYKDSREESVLGSVLLPSYSVRPDGPGAPRGRRFTFTAEHPGMRTYVLAADTLEDLRGWLRALGKASRAEGEDCGLPRSPARPRPGEGPGGPGGPPEVNRREEGRTSESPEVAPLSRGPGRHEMHAPGSSADLQPDTWSRRTRSPEPFSPLSRPPSPLSLPRPRSAPVRRPPLSAGDISFPARPHTPLSRIDVRPPLDWGPQRQTLSRPPIPRRGPFSEAGGGRPPRSPQLRTPEHRTQSTQVSSGSSTYLQLPPRPPGTQASMILLPGPPVDSTLHQSLETDTLLTKLCGQDRLLRQLQEDLDKRQEEKEQLEAALELTRQQLGQATREAAASGKAWGRQRLLQDRLVNVRAALCHLTQERERVWDTYSGLEQDLGTLRETLEYLLHLGSPQDRASAQQQLWMVEDTLAGLGGPQKQPPHTEPKSPSPAPQREESSERESLSESLELSSPQSPEVDWGQPPGGDRALSSSQSGVGSPRVSRASSPECRQQSSPLLRTKAPLARPRMSAQEQLERMRRNQACGLSLPRPTSPRLLTLGRTLSPVPRQPDMEQRPIVGAAKWLRSSGSWSSPRHSTTYSPVSGGHRERVLSLSQALATEASQWHRLMTASPERNLDTRGDCLQPSPQPPSEELPQVTSSPTSHKANSATTGFSCQGSGRGLAPWEPRWDPGKAPPALAQEEGAWPLRVTLLQSSF
Take B1: the binding result was “binds”.

B2: Serine/arginine-rich splicing factor 5 (protein, UniProt Q09167 1-269)
chain: MSGCRVFIGRLNPAAREKDVERFFKGYGRIRDIDLKRGFGFVEFEDPRDADDAVYELDGKELCSERVTIEHARARSRGGRGRGRYSDRFSSRRPRNDRRNAPPVRTENRLIVENLSSRVSWQDLKDFMRQAGEVTFADAHRPKLNEGVVEFASYGDLKNAIEKLSGKEINGRKIKLIEGSKRHRSRSRSRSRTRSSSRSRSRSRSRRSKSYSRSRSRSRSRSKSRSGSRSPVPEKSQKRGSSSRSKSPASVDRQRSRSRSRSRSVDSGN
With B2, the binding entry is listed as “binds”.

B3: Centromere protein U (protein, UniProt Q4V8G7 1-410)
chain: MAARRSLRYSGDPGAKRSRNTLGSTNSRKQKAGQKPKRKDVFDFPNTSDVSSMLRELEEEEPYETFDPPLHSTAIYTDDELYKHCVSSTSPATHRGKESRNLNPSENEASGNDSIKLSAKKPRRKLEPISDESDSSEDNVRRSVSIERPRARKPPAAPAAASSSSSPSERPAEQVTPRKTSFPQPSAVEETPAAQSQLKTQKKVRPSPGRRKRPRRGSTHSDASESMHILCLEGKRQSDVMELDVVLSAFERTFLDYKQRVESESCNQAISKFYFKIKGELIRMLKEVQMLKALKRKNTKIISNMEKKRQRLIDVQDELIRLEPQLKQLQTKYDDLKKRKSALKNSKHFLSNLKQLYQDYSNVREEEPKEKEKYDSSSLPALLFKARSILGAEKHLKTINYHLGKLLKQD
With B3, the binding entry was “binds”.

B4: Homeobox protein Nkx-6.1 (protein, UniProt O35762 1-365)
chain: MLAVGAMEGPRQSAFLLSSPPLAALHSMAEMKTPLYPAAYPPLPTGPPSSSSSSSSSSSPSPPLGAHNPGGLKPPAAGGLSSLGSPPQQLSAATPHGINDILSRPSMPVASGAALPSASPSGSSSSSSSSASATSASAAAAAAAAAAAAAASSPAGLLAGLPRFSSLSPPPPPPGLYFSPSAAAVAAVGRYPKPLAELPGRTPIFWPGVMQSPPWRDARLACTPHQGSILLDKDGKRKHTRPTFSGQQIFALEKTFEQTKYLAGPERARLAYSLGMTESQVKVWFQNRRTKWRKKHAAEMATAKKKQDSETERLKGTSENEEDDDDYNKPLDPNSDDEKITQLLKKHKSSGGSLLLHASEAEGSS
As to B4, the binding result is on record as “binds”.

B5: Elongator complex protein 1 (protein, UniProt Q8VHU4 1-1331)
chain: MRNLKLHQTLEFRDIQAPGKPQCFCLRAEQGTVLIGSERGLTEVDPVKKEVKTEISLVAEGFLPEDGSGCIVGIQDLLDQESVCVATASGDVIVCNVSTQQLECVGNVASGISVMSWSPDQELLLLATAQQTLIMMTRDYEVITEQQIHQDDFGEGKFITVGWGSKDTQFHGSEGRPITFPVQMHESALSWDDHRPQITWRGDGQFFAVSVVCSQTGARKIRVWNREFALQSTSESVPGLGPSLAWKPSGSLIASTQDKPNQQDVVFFEKNGLLHGYFTLPFLKDEVKVNDLLWNADSSVLAVWLEDLPKEGSSTLKSYVQLWTVGNYHWYLKQSLPFSTTGKNQIVSLLWDPVTPGRLHVLCQGWRYLCCDWHWTTDRSSGNSADDLANVAVIDGNKVLVTVFQRTVTPPPMCTYRLLIPHPVNQVMSSAHLGNDLAVLDASNQISVYKCDDKPDMDSTVKLGAVGGTGFKVPLRTPHLEKRYRIQFGNKEEEEDVSPLQFRFLTWIEGDAFLAISHSHSSPQSIIHHLTMAGSEGDEEQGQLNVSSSVTVDGVVIGLCCCSKTKSSAVQLADGQVLKYLWESPSSAVEPWKNSEGRPVRFARPCTQMEAAAIGGEECVLGLTDRCRFFINDTEVASNITSFAVCDDFLLVTTHSHTCQCFSLSGASLKMLQAGLCGSQVPSGEILRKVERGSRIVTVVPQDTKLILQMPRGNLEVVHHRALVLAQIRKWLDKLMFKEAFECMRKLRINLNLIHDHNPKVFLENVETFIKQIDSVNHLNLFFTELKEEDVTKTMYPPPVTKSVQVSTNPDGKKVDLICDAMRVAMETINPRKFCLSILTSHVKKTTPELDIVLQKVHELQGKIPFVPESVSAEEALKYLLLLVDVNELFNHSLGTYDFDLVLMVAEKSQKDPKEYLPFLNTLKKMETNYQRFTIDKYLKRYEKALGHLSKCGPEYFTECLNLIKDKNLYKEALKLYRPDSPQYQAVSVAYGEHLVQELLYEPAGLVFARCGAHEKALEAFLACGSWQQALCMAAQLQMAKDKVAGLARTLAGKLVEQRKHSEAATVLEQYALDYEEAVLLLLEGSAWEEALRLVYKYDRVDIIETSVKPSILEAQKNYMDFLDSQTATFIRHKNRLKVVRELKSQRPRVHVDHEVAHGRETDLFSETSSIRSGSEMSGRYSHSNSRISARSSKNRRKAERKKHSLKEGSPLEGLALLEALSEVVQSIEKLKDEVHAILKVLFLFEFEEQARELQRAFESTLQLMGTALPDIWTLTGQQSSSTPVLGPSSTVNSIMASYQQQKTCVPVLDAWACLPPKIDQRSQWKLSLLE
B5: the binding result is listed as “binds”.

B6: UDP-glucose 6-dehydrogenase (protein, UniProt O70199 1-493)
chain: MVEIKKICCIGAGYVGGPTCSVIARMCPEIRVTVVDVNEARINAWNSPTLPIYEPGLKEVVESCRGKNLFFSTNIDDAIREADLVFISVNTPTKTYGMGKGRAADLKYIEACARRIVQNSNGYKIVTEKSTVPVRAAESIRRIFDANTKPNLNLQVLSNPEFLAEGTAIKDLKNPDRVLIGGDETPEGQRAVQALCAVYEHWVPKEKILTTNTWSSELSKLAANAFLAQRISSINSISALCESTGADVEEVATAIGMDQRIGNKFLKASVGFGGGCFQKDVLNLVYLCEALNLPEVARYWQQVIDMNDYQRRRFASRIIDSLFNTVTDKKIAILGFAFKKDTGDTRESSSIYISKYLMDEGAHLHIYDPKVPREQIVVDLSHPGVSADDQVSRLVTISKDPYEACDGAHALVICTEWDMFKELDYERIHKRMLKPAFIFDGRRVLDGLHNELQTIGFQIETIGKKVSSKRIPYTPGEIPKFSLQDPPNKKPKV
Consider B6, for which the binding entry was “binds”.

B7: 3-alpha-hydroxysteroid dehydrogenase (protein, UniProt P23457 1-322)
chain: MDSISLRVALNDGNFIPVLGFGTTVPEKVAKDEVIKATKIAIDNGFRHFDSAYLYEVEEEVGQAIRSKIEDGTVKREDIFYTSKLWSTFHRPELVRTCLEKTLKSTQLDYVDLYIIHFPMALQPGDIFFPRDEHGKLLFETVDICDTWEAMEKCKDAGLAKSIGVSNFNCRQLERILNKPGLKYKPVCNQVECHLYLNQSKMLDYCKSKDIILVSYCTLGSSRDKTWVDQKSPVLLDDPVLCAIAKKYKQTPALVALRYQLQRGVVPLIRSFNAKRIKELTQVFEFQLASEDMKALDGLNRNFRYNNAKYFDDHPNHPFTDE
For B7, the binding result is recorded as “binds”.

B8: ATP-sensitive inward rectifier potassium channel 11 (protein, UniProt P70673 1-390)
chain: MLSRKGIIPEEYVLTRLAEDPTEPRYRTRERRARFVSKKGNCNVAHKNIREQGRFLQDVFTTLVDLKWPHTLLIFTMSFLCSWLLFAMVWWLIAFAHGDLAPGEGTNVPCVTSIHSFSSAFLFSIEVQVTIGFGGRMVTEECPLAILILIVQNIVGLMINAIMLGCIFMKTAQAHRRAETLIFSKHAVITLRHGRLCFMLRVGDLRKSMIISATIHMQVVRKTTSPEGEVVPLHQVDIPMENGVGGNSIFLVAPLIIYHVIDSNSPLYDLAPSDLHHHQDLEIIVILEGVVETTGITTQARTSYLADEILWGQRFVPIVAEEDGRYSVDYSKFGNTVKVPTPLCTARQLDEDRSLLDALTLASSRGPLRKRSVAVAKAKPKFSISPDSLS
For B8, the binding entry is “binds”.

B9: Protein phosphatase 1H (protein, UniProt Q5M821 1-513)
chain: MLTRVKSAVANFMGGIMAGSSGSEHGGSGCGGSDLPLRFPYGRPEFLGLSQDEVECSADHIARPILILKETRRLPWATGYAEVINAGKSTHNEDQASCEVLTVKKKVGTITSTPNRNSKRRSSLPNGEGLQLKENSESEGISCHYWSLFDGHAGSGAAVVASRLLQHHITQQLQDIVEILKNSAILPPTCLGEEPESTPAHGRTLTRAASLRGGVGAPGSPSTPPTRFFTEKKIPHECLVIGALESAFKEMDLQIERERSAYNISGGCTALIVVCLLGKLYVANAGDSRAIIIRNGEIIPMSSEFTPETERQRLQYLAFMQPHLLGNEFTHLEFPRRVQRKELGKKMLYRDFNMTGWAYKTIEDDDLKFPLIYGEGKKARVMATIGVTRGLGDHDLKVHDSNIYIKPFLSSAPEVRVYDLSKYEHGADDVLILATDGLWDVLSNEEVAEAITQFLPNCDPDDPHRYTLAAQDLVMRARGVLKDRGWRISNDRLGSGDDISVYVIPLIHGNKLS
Take B9: the binding entry is recorded as “binds”.

B10: Septin-10 (protein, UniProt Q5PQK1 1-456)
chain: MASCDEVRQLKKEHTRSLTMCGHVGFESLPDQLVDRSIEQGFCFNILCVGETGIGKSTLINTLFNTNFEELESSHFCPCVRLRAQTYELQESNVRLKLTIVNTVGFGDQINKEESYQPIVDYIDNQFEAYLQEELKIKRALFNYHDSRIHVCLYFIAPTGHSLRTLDLLTMKSLDNKVNIIPLIAKADTISKSELQKFKMKLMSELVINGVQIYQFPTDDDTTAKINGAMNGHLPFAVVGSMDEIKVGNKMVKARQYPWGIVQVENENHCDFVKLREMLICTNMEDLREQTHMRHYELYRRCKLQEMGFIDIGPENKPLSLQETYEAKRHEFCGERQRKEEQMKQMFVQRVKEKEAILKEAERELQAKFEHLKRIHQEERMKLEEKRRMLEEESVAFAKKKATCELFPHQSFLASGSSIRRDKDRKKTDGASAFCDCITAQENVRLCISSQRKEMD
Turning to B10, the binding result is on record as “binds”.

Source of the values: publication PMC6010280.
